PubChem BioAssay AID504791 – Drosophila RNAi Screening Center – 2011
The screen tested about 23,000 reagents; below is an unselected part of those with a known target gene and a result. In the full data, 199 (0.86%) got an active call. 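Plate-scaled ratios behind the calls are not deposited; printed light signals are raw; many rows marked increased or decreased are still called inactive.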

Purpose: 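Genes of the fly required for silencing by miRNA, siRNA or endo-siRNA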 (primary screen)
Cells: Drosophila S2-derived reporter cells
Knock-down reagent: long dsRNA against Drosophila genes, about 150-250 ng dsRNA per well (siRNA assay); about 80-120 ng (miRNA assay)
Time to read-out: about 5 days (siRNA assay); about 4 days (miRNA assay)
Treatment: copper sulfate induction of reporters: 25 µM (siRNA assay); 200 mM stated (miRNA assay), 1-2 days before reading
Detection: 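Per-well ratio of Renilla over firefly light, expressed relative to that plate's average ratio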
Scale: siRNA reporter hit score: higher = 3 marks a strong hit with raised ratio; -3 a strong hit with lowered ratio
Call rule: 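a well was a first-pass pick when its plate-scaled ratio rose above 1.5 (siRNA assay) or 1.6 (miRNA assay), or dropped below 0.6; a gene counted only if two separate dsRNAs agreed on retest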

no.	Gene	DRSC id	siRNA reporter hit score	stable assay Renilla, run 1 (luminescence)	stable assay firefly, run 1 (luminescence)	outcome
1	eloF (GeneID 41211)	DRSC15162		7395	3.77e5	inactive
2	CG13625 (GeneID 42931)	DRSC14627		7256	3.74e5	inactive
3	CG6426 (GeneID 36891)	DRSC06985		6667	4.49e5	inactive
4	CR10032 (GeneID 40877)	DRSC12499		6471	4.30e5	inactive
5	CG4213 (GeneID 33209)	DRSC00641		7811	4.84e5	inactive
6	CG16710 (GeneID 42790)	DRSC15136	-3	6608	5.03e5	inactive
7	Gr8a (GeneID 31865)	DRSC18043		4767	3.93e5	inactive
8	Pp2C1 (GeneID 31404)	DRSC18699		7563	5.75e5	inactive
9	Pp2C1 (GeneID 31404)	DRSC23287		3379	2.91e5	inactive
10	CG11593 (GeneID 38477)	DRSC08206		5406	3.13e5	inactive
11	MrgBP (GeneID 35880)	DRSC06417		6634	4.78e5	inactive
12	CG13539 (GeneID 37680)	DRSC04181		6111	4.34e5	inactive
13	CG11444 (GeneID 31388)	DRSC17784		10965	5.76e5	inactive
14	CG10214 (GeneID 42811)	DRSC14213		10387	4.63e5	inactive
15	CG10934 (GeneID 37013)	DRSC06017		7763	2.94e5	inactive
16	Ugt37E1 (GeneID 53512)	DRSC02248		7306	3.55e5	inactive
17	CG14631 (GeneID 31049)	DRSC17792		5998	4.61e5	inactive
18	CG14631 (GeneID 31049)	DRSC17941		6507	2.92e5	inactive
19	CG34124 (GeneID 4379887)	DRSC00849		5962	4.65e5	inactive
20	Cib2 (GeneID 37363)	DRSC04535		7866	5.38e5	inactive
21	CG14632 (retired record) (GeneID 31035)	DRSC17942		2831	2.60e5	inactive
22	Nse1 (GeneID 33938)	DRSC02147		15779	1.03e6	inactive

Continued; the last 3 above are carried over.
no.	Gene	DRSC id	siRNA reporter hit score	stable assay Renilla, run 1 (luminescence)	stable assay firefly, run 1 (luminescence)	outcome
20	Cib2 (GeneID 37363)	DRSC04535		7866	5.38e5	inactive
21	CG14632 (retired record) (GeneID 31035)	DRSC17942		2831	2.60e5	inactive
22	Nse1 (GeneID 33938)	DRSC02147		15779	1.03e6	inactive
23	Fas3 (GeneID 35097)	DRSC01638		6856	5.51e5	inactive
24	Fas3 (GeneID 35097)	DRSC03326		7291	4.89e5	inactive
25	Fas3 (GeneID 35097)	DRSC22776		3888	3.25e5	inactive
26	ClpX (GeneID 42369)	DRSC15592		10988	4.70e5	inactive
27	CG17129 (GeneID 38080)	DRSC08508		10433	4.98e5	inactive
28	Vps52 (GeneID 33774)	DRSC03050		8138	4.16e5	inactive
29	Acsx2 (GeneID 42353)	DRSC14308		7784	3.29e5	inactive
30	Trxr2 (GeneID 40475)	DRSC11900		8047	4.13e5	inactive
31	Eph (GeneID 43803)	DRSC17164		6715	4.30e5	inactive
32	CG33461 (GeneID 2768840)	DRSC22892		4427	3.87e5	inactive
33	Opbp (GeneID 246618)	DRSC04966		7355	3.58e5	inactive
34	CG6277 (GeneID 43251)	DRSC16008		6916	4.11e5	inactive
